In brackets after ≈: the same amount, converted by molar mass.
What was measured:
[1] = system: Aspergillus fumigatus; assay: In vitro activity against A. fumigatus; format: cell-based
Description: (§1) The assays were performed at 37 °C in sterile 96-well microtiter plates, each well containing 10 μL of aqueous compound together with a bacterial/fungal/MRC-5 inoculum (190 μL; 5 × 10^3 CFU/mL). The compounds were tested at 64, 16, 4, 1, and 0.25 μ-mol L^–1. Bacterial/fungal/MRC-5 growth was compared to untreated-control wells (100% growth) and medium-control wells (0% cell growth). After 3 days of incubation, 50 μL of resazurin was added in each well. After 30 min at 37 °C, the fluorescence was measured at λex = 550 nm and λem = 590 nm. The results are expressed as % reduction in cell growth/viability compared to control wells, and IC50 values were determined.

[2] = system: MRC-5 human fetal lung fibroblasts; assay: Cytotoxicity on MRC-5 cells; format: cell-based; conditions: MRC5, MRC-5, reference validation of the screening panel
Description: as §1, with “Briefly, S. aureus and E. coli were cultured in MHT (Mueller Hinton Broth) and maintained on TSA (Tryptone Soy Agar). […] The T. b. brucei Squib 427 strain (suramine-sensitive) and T. b. rhodesiense STIB-900 strain were maintained in Hirumi’s Modified Iscove’s medium-9 (HMI-9) medium, supplemented with 10% inactivated fetal calf serum. […] All cultures were incubated at 37 °C under an atmosphere of 5% CO2. The assays” for “The assays”

| SMILES | IC50 [1] | IC50 [2] |
| --- | --- | --- |
| Clc1ccc(COC(Cn2ccnc2)c2ccc(Cl)cc2Cl)c(Cl)c1 (centres unmarked) [Miconazole] | 1.18 µg/mL (≈ 2.84 µM) |  |
| CC/C(=C(\c1ccccc1)c1ccc(OCCN(C)C)cc1)c1ccccc1 [Tamoxifen] |  | 3.72 µg/mL (≈ 10 µM) |
